# Measurements taken from paper PMC7250575.
# Sequences of proteins named here, by UniProt entry; tags and fusion partners are left off.
# UniProt Q61781: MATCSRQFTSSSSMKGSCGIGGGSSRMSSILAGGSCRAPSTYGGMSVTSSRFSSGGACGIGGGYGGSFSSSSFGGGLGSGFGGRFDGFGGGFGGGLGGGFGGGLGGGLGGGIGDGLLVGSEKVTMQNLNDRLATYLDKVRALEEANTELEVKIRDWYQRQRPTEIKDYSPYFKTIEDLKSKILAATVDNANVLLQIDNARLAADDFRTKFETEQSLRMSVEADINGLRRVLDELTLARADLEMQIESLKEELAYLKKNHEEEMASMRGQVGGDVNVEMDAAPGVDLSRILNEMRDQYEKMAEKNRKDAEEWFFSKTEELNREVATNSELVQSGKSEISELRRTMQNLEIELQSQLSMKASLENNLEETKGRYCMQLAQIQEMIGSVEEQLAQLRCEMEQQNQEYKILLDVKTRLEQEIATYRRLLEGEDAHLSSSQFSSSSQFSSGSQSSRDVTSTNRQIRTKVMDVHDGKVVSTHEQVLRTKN
# B1: 14-3-3σ, endogenous, mouse (protein, UniProt O70456 1-248)
# chain: MERASLIQKAKLAEQAERYEDMAAFMKSAVEKGEELSCEERNLLSVAYKNVVGGQRAAWRVLSSIEQKSNEEGSEEKGPEVKEYREKVETELRGVCDTVLGLLDSHLIKGAGDAESRVFYLKMKGDYYRYLAEVATGDDKKRIIDSARSAYQEAMDISKKEMPPTNPIRLGLALNFSVFHYEIANSPEEAISLAKTTFDEAMADLHTLSEDSYKDSTLIMQLLRDNLTLWTADSAGEEGGEAPEEPQS
# Target: keratin 14 (K14), wild type, mouse (mouse (endogenous in C57Bl/6 newborn skin keratinocytes)) (UniProt Q61781)
# Assay: affinity purification with mass spectrometry; K14 antibody immunoprecipitation (Protein G Sepharose) from lysates of WT newborn mouse skin keratinocytes in primary culture, 1 mM calcium, 4 days; lysis in 1% Triton X-100, 2% Empigen, 40 mM Hepes pH 7.5, 120 mM NaCl; bands excised from silver-stained gels, tandem MS
binder,measurement,value
B1,binding,binds

# Results are given in words; binding and its absence hold for the method and conditions named. Binding seen in cells or lysates may run through a third protein. These calls come from enrichment with a bait or labelling near it, and not all partners need be listed.
